Measurements reported in PubChem BioAssay AID2685 (National Center for Advancing Translational Sciences (NCATS), 2010).
About 2,100 (0.66%) of roughly 320,000 compounds were called active. Inconclusive results, whose numbers are uncertain, are shown with a selection of clear calls. Calls come from the whole dose curve; as a rule, active = well fitted inhibition curve with a large enough effect in the signal ratio, with a control signal flat (not every such curve was filed as active); inconclusive = small, poorly fitted or top-dose-only effect, or effect the other way, or a change in a side signal; inactive = flat fitted curve, though single readings scatter; the % refers to the signal ratio. Potencies beside an inconclusive call are fits to weak or partial responses and may not hold up.

Test: qHTS Assay for Lipid Storage Modulators in Drosophila S3 Cells
Settings: BODIPY lipid droplet fluorescence, 18-24 h, cells fed with added oleic acid; lipid storage change, negative = inhibition: at 46.1 µM (top of the series) unless noted
How it was run: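 Drosophila S3 cells got compounds at several concentrations plus oleic acid (400 uM solution). Laser-scanning cytometry with 488 nm excitation read lipid droplets at 500-530 nm and cells at 575-640 nm. Percent activity was relative to 20 uM Triacsin C.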
% is set by controls: 0 for no effect and ±100 for the full control effect; potency is the fitted concentration of half-maximal effect.

SMILES	Potency	lipid storage change, negative = inhibition
CC(=O)/C=C1\SC(CC(=O)O)C(=O)N1c1ccccc1 (centres undefined)	inconclusive: 1.03 µM [activator, partial curve]	
CNC(=O)CSc1ncnc2c1cnn2-c1ccccc1		inconclusive: 0.691%
CC1CCCCN1C(=O)COc1ccc(S(=O)(=O)N2CCCC2)cc1[N+](=O)[O-] (centres undefined)		inconclusive: 7.91%
C/C(CC(=O)NCc1ccc(Cl)cc1)=N\NC(=O)Cc1ccccc1		inconclusive: -3.52%
CCc1ccc(C(=O)/C=C2\Sc3ccccc3NC2=O)cc1	inconclusive: 10.3 µM [activator, partial curve]	
COc1cc(/C=N/NC(=O)C(Cc2c[nH]c3ccccc23)NC(=O)OCC(C)C)cc([N+](=O)[O-])c1OCc1ccccc1 (centres undefined)		inconclusive: -9.6%
COc1ccc(C(C)=O)cc1COC(=O)c1ccc(C)c(S(=O)(=O)N2CCOCC2)c1	inconclusive: 7.31 µM [falling, partial curve, poor fit]	
O=C(OCn1nnc2ccccc2c1=O)c1cccnc1Cl	inconclusive: 0.651 µM [falling, full curve, poor fit]	
O=C1CSC(=Nc2ccc(Cl)cc2)N1	inconclusive: 6.51 µM [cytotoxic, single point]	
NS(=O)(=O)c1cc(Cl)c(NC(=O)COC(=O)c2ccccn2)c(Cl)c1		inactive: 8.46%
COc1cc(C(=O)NC(C)C2CC3CCC2C3)cc(OC)c1OC (centres undefined)		inconclusive: 61%
N#CCN1CCN(CC(=O)c2ccc(Br)cc2)CC1		inconclusive: 34.3%
Cc1ccc(C(=O)Nc2ccc(C(=O)/C=C/c3cccs3)cc2)cc1	inconclusive: 18.4 µM [falling, single point]	
COc1ccc(/C=N/N2CCN(C3c4ccccc4-c4ccccc43)CC2)cc1O		inconclusive: 5.14%
O=C(CCc1ccccc1)NC(=S)Nc1cccc(Br)c1		inconclusive: 29.2%
O=C(CSc1nnc(NC(=O)c2ccccc2[N+](=O)[O-])s1)NCc1ccco1		inconclusive: -10.8%
C=CCn1c(SCC(N)=O)nc2scc(-c3ccc(C)o3)c2c1=O		inconclusive: 10.1%
COc1ccc(OC)c(Nc2nc(-c3sc(NC(=O)c4ccccc4)nc3C)cs2)c1		inconclusive: 63.7%
O=C(c1ccccc1Cl)N1CCC(N2CCC(C(=O)N3CCCC3)CC2)CC1	inconclusive: 10.3 µM [activator, single point]	
O=C(NCc1cccs1)c1cc(-c2cccs2)on1		inconclusive: 36.2%
COc1ccc(C(=O)NCC23C=CC(O2)C2C(=O)N(Cc4ccccc4)C(=O)C23)cc1 (centres undefined)		inconclusive: 36.9%
N#C/C(=C/c1ccc(CNS(=O)(=O)c2ccccc2)o1)C(=O)NCc1ccccc1		inconclusive: -45.9%
CN(C(=O)CCc1nnc(CCCCc2ccccc2)o1)C1CCOCC1	inconclusive: 29.1 µM [activator, single point]	
Cc1ccc(NC(=O)N(Cc2ccco2)Cc2cc3cc(C)cc(C)c3nc2Cl)cc1		inconclusive: 57.5%
Cc1cc(Cl)ccc1OC(C)C(=O)N1CCCN(C(=O)C(C)Oc2ccc(Cl)cc2C)CC1 (centres undefined)		inconclusive: -2.29%

A draw from above in order of heavy-atom count, descending.
SMILES	Potency	lipid storage change, negative = inhibition
COc1ccc(/C=N/N2CCN(C3c4ccccc4-c4ccccc43)CC2)cc1O		inconclusive: 5.14%
CCc1ccc(C(=O)/C=C2\Sc3ccccc3NC2=O)cc1	inconclusive: 10.3 µM [activator, partial curve]	
O=C1CSC(=Nc2ccc(Cl)cc2)N1	inconclusive: 6.51 µM [cytotoxic, single point]	

Next part

SMILES	Potency	lipid storage change, negative = inhibition
N#CCN=C(c1ccccc1)c1ccccc1	inconclusive: 6.51 µM [activator, single point]	
COc1ccccc1C(CNC(=O)c1ccc(-c2ccccc2Cl)o1)N1CCCC1 (centres undefined)	inconclusive: 0.731 µM [rising, full curve, poor fit]	
O=S(=O)(c1ccc(OCC(O)CN2CCCC2)cc1)N1CCOCC1 (centres undefined)		inconclusive: 2.17%
Cc1cccc(NC(=O)NNC(=O)c2cc3ccccc3cc2O)c1C		inconclusive: 4.14%
O=S1(=O)CC/C(=N\O)c2ccccc21		inactive: 5.13%
O=C(CN1CCC(C(=O)c2ccc(Cl)cc2)CC1)NC1CCCC1		inconclusive: -6.95%
O=C(NCC1CC1(Cl)Cl)Nc1ccc(Cl)c(Cl)c1 (centres undefined)	inconclusive: 3.26 µM [falling, partial curve, poor fit]	
COc1cccc(NC(=O)CN(C)C(=O)c2ccc(NC(=O)CC3SC(N4CCCCC4)=NC3=O)cc2)c1 (centres undefined)	inconclusive: 16.4 µM [activator, single point]	
O=C(Nc1ccccc1N1CCCCC1)c1ncoc1-c1cccc(F)c1	inconclusive: 16.4 µM [activator, single point]	
Cc1ccc(NC(=S)N=Nc2c(O)[nH]c3ccccc23)cc1		inconclusive: 23.9%
COCCOc1cc(N(CC(=O)N(C)C)S(=O)(=O)c2ccccc2)c(Cl)cc1Cl		inconclusive: 14%
Cc1nc(-c2ccccn2)sc1C(=O)O		inconclusive: 15.8%
COc1ccccc1C(=O)N1CCN(C(=O)Cc2ccccc2)CC1		inconclusive: 114%
CC(C)(C)c1ccc(NC(=O)N2CCN(c3ccc([N+](=O)[O-])cn3)CC2)cc1	inconclusive: 32.6 µM [cytotoxic, single point]	
CCNC(=O)COC(=O)c1cc(S(=O)(=O)N2CCCCC2)ccc1C		inconclusive: 14.5%
CCOC(=O)C1CCN(S(=O)(=O)Cc2ccccc2)CC1		inconclusive: 13.1%
O=C(CSc1ncnc2c1oc1ccccc12)Nc1cccc(Cl)c1		inconclusive: 26.2%
Cc1ccc(C)c(OCC(=O)Nc2cccc(C(=O)O)c2)c1C	inconclusive: 29.1 µM [falling, single point]	
COC(=O)C1=C(C)N(Cc2ccccc2)C(=NCC(C)C)N[C@H]1c1cccc(F)c1	inconclusive: 16.4 µM [falling, single point]	
COc1ccc(Nc2nc(N)nc(C(F)(F)F)n2)c(OC)c1	inconclusive: 2.91 µM [activator, single point]	
CCOc1cc(/C=C2\C(=O)N(CCc3ccc(OC)c(OC)c3)C(C)=C2C(=O)OC)ccc1O	inconclusive: 18.4 µM [falling, single point]	
CCCC1(C(=O)OCC)NC(c2ccc(N(C)C)cc2)C2C(=O)N(c3ccc(OCC)cc3)C(=O)C21 (centres undefined)		inconclusive: -22.8%
CCOC(=O)c1cc(C#N)c(Oc2cccc(C(F)(F)F)c2)nc1-c1ccccc1	inconclusive: 20.6 µM [activator, partial curve]	
CC(CCc1ccco1)NC(=O)c1cccc2c1C(=O)N(C1CCCCC1)C2 (centres undefined)		inconclusive: 1.02%
O=C(O)C(Sc1ccncn1)c1ccccc1 (centres undefined)	inconclusive: 0.146 µM [falling, full curve, poor fit]	

SMILES	Potency	lipid storage change, negative = inhibition
CC(C)NC(=O)COC(=O)c1cccc(NS(=O)(=O)/C=C/c2ccccc2)c1		inconclusive: 17.1%
O=C(c1nn2c(C(F)(F)F)cc(-c3ccc(F)cc3)nc2c1Cl)N1CCOCC1		inconclusive: 3.62%
COc1ccc(NC(=O)c2ccccc2N(Cc2ccccc2)S(C)(=O)=O)c(OC)c1		inconclusive: -44.6%
COc1ccc2nc(/C=N/NC(=O)[C@H](CCSC)NC(=O)OC(C)(C)C)ccc2c1		inactive: 0.135%
COc1ccc(C(=O)Cn2nnc(-c3ccccc3NC(=O)C3CC3)n2)cc1		inconclusive: -8.76%
Cc1ccccc1NC(=O)c1cnc(Nc2nc3ccccc3s2)nc1C		inconclusive: 1.61%
CC1(C)Cc2c(sc(NC(=O)c3ccc(S(=O)(=O)N4CCCCCC4)cc3)c2C#N)C(C)(C)N1		inconclusive: 8.91%
CCOC(=O)C1=C(CSc2nc3c(cc2C#N)CN(C)CC3)OC(N)=C(C#N)C1c1ccc(Cl)cc1 (centres undefined)		inconclusive: 62.5%
CC(C)C(=O)Nc1ccc(C(=O)NNC(=O)C(c2ccccc2)c2ccccc2)cc1	inconclusive: 29.1 µM [activator, single point]	
Cc1cc(-c2nnc3n2N=C(c2ccc(-c4ccccc4)cc2)CS3)n[nH]1	inconclusive: 32.6 µM [falling, single point]	
COc1ccccc1C(=O)NCCC(=O)NCC(c1ccco1)N1CCCC1 (centres undefined)	inconclusive: 29.1 µM [activator, single point]	
CCOCCOC(=O)COc1ccc(N2C(=O)c3ccccc3C2=O)cc1		inconclusive: -1.42%
C=CCn1c(SCC(=O)Nc2ccc(N3CCOCC3)cc2)nnc1-c1ccncc1	inconclusive: 29.1 µM [activator, single point]	
O=C(c1ccc(F)cc1)C1CCN(C(=O)N2CCOCC2)CC1	inconclusive: 0.731 µM [falling, full curve, poor fit]	
CC(=O)Nc1ccc(S(=O)(=O)NCC(=O)OC(C)c2ccccc2Cl)cc1 (centres undefined)		inconclusive: -22.7%
COc1ccc(CCNC(=O)c2cccc3c2C(=O)N(C2CCCCC2)C3)cc1OC	inconclusive: 29.1 µM [falling, single point]	
O=C(N/N=C/c1coc2ccccc2c1=O)c1ccc(Cl)cc1		inconclusive: -25.2%
O=C(CSc1nc(=O)n(CCCN2CCOCC2)c2c1CCCC2)Nc1ccc(F)cc1		inconclusive
Cc1cccc(/N=C/c2c(C)[nH]n(-c3ccccc3)c2=O)n1		inconclusive: 3.43%
CCOc1ccccc1NC(=O)NNC(=O)c1ccc2ccccc2c1		inconclusive: 18.2%
C/C(=N\O)C(C)Oc1ccc(Cl)cc1 (centres undefined)		inconclusive: -1.87%
O=C(NCc1ccc2c(c1)OCO2)c1cccc(Cl)c1		inconclusive: 22.9%
COc1ccc2cc(/C=C3\SC(=S)NC3=O)c(N3CCOCC3)nc2c1	inconclusive: 6.51 µM [rising, partial curve, poor fit]	
Cc1nnn(C23CC4CC(CC(CC(=O)Nc5ccc(C)c(Cl)c5)(C4)C2)C3)n1		inconclusive: 4.23%
